{
  "sequences": {"note": "Chains of the proteins cited; added tags and fusions are not shown. Residues count along the entry.", "UniProt P21396, whole entry": "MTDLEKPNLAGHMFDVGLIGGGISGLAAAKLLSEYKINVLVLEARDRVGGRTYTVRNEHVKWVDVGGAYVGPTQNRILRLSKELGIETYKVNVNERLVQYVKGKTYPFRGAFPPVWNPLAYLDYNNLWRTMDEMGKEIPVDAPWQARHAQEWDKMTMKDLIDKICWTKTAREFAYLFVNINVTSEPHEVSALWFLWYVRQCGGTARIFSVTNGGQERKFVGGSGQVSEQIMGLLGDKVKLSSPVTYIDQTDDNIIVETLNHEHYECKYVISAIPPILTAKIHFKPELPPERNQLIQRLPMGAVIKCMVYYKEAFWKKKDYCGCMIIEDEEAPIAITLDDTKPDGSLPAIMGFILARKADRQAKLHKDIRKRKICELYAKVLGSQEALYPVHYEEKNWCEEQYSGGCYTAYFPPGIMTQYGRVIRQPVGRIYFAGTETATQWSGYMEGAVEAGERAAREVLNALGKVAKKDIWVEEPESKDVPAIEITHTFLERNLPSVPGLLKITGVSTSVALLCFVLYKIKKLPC", "UniProt P19643, whole entry": "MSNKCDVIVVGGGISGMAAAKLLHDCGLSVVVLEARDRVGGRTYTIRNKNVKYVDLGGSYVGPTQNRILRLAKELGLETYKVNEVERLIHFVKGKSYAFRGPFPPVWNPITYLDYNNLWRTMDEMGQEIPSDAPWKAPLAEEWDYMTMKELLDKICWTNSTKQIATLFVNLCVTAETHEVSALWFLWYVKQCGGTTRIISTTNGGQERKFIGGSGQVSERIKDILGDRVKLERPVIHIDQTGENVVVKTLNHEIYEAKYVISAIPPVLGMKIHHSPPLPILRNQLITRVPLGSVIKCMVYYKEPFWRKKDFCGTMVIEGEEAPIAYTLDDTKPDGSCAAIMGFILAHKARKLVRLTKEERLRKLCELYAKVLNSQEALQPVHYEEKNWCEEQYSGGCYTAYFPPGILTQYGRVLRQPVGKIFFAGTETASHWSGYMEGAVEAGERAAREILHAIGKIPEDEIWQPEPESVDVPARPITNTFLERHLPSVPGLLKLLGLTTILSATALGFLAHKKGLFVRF", "UniProt Q64133, whole entry": "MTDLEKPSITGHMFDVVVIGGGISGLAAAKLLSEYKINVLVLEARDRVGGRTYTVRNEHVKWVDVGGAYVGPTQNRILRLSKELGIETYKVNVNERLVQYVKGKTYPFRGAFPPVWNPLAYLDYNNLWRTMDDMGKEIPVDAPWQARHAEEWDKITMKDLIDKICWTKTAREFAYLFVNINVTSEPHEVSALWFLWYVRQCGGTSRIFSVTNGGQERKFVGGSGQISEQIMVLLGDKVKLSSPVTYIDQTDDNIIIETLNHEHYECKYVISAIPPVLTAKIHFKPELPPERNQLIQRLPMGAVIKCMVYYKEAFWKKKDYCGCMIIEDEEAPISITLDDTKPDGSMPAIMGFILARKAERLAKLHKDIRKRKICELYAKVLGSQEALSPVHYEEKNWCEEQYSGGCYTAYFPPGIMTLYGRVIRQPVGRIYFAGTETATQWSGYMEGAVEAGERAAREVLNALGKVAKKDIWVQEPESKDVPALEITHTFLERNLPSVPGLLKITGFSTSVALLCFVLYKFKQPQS", "UniProt Q8BW75, whole entry": "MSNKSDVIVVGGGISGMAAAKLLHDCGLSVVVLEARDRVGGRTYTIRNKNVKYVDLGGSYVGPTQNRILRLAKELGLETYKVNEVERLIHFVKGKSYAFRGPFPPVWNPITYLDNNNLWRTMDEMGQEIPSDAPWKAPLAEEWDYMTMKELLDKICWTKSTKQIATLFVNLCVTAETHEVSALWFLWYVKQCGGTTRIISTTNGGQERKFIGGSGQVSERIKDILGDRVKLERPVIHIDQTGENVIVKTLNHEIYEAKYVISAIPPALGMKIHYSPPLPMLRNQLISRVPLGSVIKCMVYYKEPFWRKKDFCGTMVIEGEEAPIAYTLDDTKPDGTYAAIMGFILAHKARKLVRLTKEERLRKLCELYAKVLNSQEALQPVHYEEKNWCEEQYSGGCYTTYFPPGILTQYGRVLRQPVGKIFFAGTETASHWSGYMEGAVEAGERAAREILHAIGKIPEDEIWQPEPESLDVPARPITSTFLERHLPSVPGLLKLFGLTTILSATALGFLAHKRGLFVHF", "UniProt P22303, 32-617 isoform 2 limits assumed": "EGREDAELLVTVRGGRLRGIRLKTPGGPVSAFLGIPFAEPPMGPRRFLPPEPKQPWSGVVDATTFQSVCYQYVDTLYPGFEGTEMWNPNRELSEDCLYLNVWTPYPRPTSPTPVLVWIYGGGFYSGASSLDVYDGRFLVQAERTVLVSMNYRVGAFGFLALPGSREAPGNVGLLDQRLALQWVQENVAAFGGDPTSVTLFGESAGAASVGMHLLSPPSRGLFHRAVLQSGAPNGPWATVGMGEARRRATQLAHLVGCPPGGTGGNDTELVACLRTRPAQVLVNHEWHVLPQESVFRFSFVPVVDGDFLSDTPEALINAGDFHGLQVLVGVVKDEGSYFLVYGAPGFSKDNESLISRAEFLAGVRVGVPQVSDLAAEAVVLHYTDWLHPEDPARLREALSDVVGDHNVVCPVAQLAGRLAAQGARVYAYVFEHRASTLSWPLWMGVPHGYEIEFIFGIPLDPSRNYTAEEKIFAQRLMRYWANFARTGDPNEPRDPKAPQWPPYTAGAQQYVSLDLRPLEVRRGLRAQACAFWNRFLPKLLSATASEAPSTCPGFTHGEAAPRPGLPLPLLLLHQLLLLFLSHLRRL", "UniProt P21836, 32-614 limits assumed": "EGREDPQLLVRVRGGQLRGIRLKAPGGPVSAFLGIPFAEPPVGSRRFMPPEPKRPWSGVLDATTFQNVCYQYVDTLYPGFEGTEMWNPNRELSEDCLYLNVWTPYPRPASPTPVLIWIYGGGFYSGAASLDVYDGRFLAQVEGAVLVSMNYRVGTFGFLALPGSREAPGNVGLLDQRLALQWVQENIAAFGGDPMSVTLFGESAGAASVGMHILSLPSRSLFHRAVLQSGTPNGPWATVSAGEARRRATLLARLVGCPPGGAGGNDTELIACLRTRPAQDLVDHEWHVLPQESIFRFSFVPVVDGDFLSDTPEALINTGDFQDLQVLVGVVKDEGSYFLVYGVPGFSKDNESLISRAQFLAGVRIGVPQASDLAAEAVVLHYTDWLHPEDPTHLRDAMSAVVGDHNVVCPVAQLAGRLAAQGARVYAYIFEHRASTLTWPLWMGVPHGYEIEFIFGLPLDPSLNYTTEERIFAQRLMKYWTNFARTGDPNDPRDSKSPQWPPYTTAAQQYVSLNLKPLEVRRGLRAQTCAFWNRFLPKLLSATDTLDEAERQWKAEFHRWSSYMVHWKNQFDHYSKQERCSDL"},
  "source": "patent USRE39616E1",
  "about": "“Aminoindan derivatives” (priority 1996, dated 2007)",
  "key": {"MAO-A [1]": {"target": "MAO-A (Rattus norvegicus, UniProt P21396)", "assay": "Inhibition of MAO activity in vitro, 5-HT as substrate", "format": "biochemical", "settings": "read-out: MAO-A Inhibition In vitro IC50; rat brain homogenate, 5-HT substrate; tested form: HCl"}, "MAO-B [2]": {"target": "MAO-B (Rattus norvegicus, UniProt P19643)", "assay": "Inhibition of MAO activity in vitro, PEA as substrate", "format": "biochemical", "settings": "read-out: MAO-B Inhibition In vitro IC50, rat brain homogenate, tested form: HCl"}, "MAO-A [3]": {"target": "MAO-A (Mus musculus, UniProt Q64133)", "assay": "Inhibition of MAO activity ex vivo (brain)", "format": "in vivo", "settings": "mice, brain tissue; tested form: HCl"}, "MAO-B [4]": {"target": "MAO-B (Mus musculus, UniProt Q8BW75)", "assay": "Inhibition of MAO activity ex vivo (brain)", "format": "in vivo", "settings": "mice, brain tissue; tested form: HCl"}, "[5]": {"target": "Human erythrocyte acetylcholinesterase (Homo sapiens, UniProt P22303)", "settings": "read-out: AChE Inhibition In vitro IC50; tested form: HCl"}, "whole brain AChE": {"target": "whole brain AChE (Mus musculus, UniProt P21836)", "settings": "mice, at peak of activity, tested form: HCl"}},
  "note": "pIC50: −log10 of the molar value. The structures given here were assigned with low confidence; some may be wrong.",
  "data": [
    {"compound": "C#CC(C)NC1CCc2ccc(OC(=O)N(C)C)cc21", "note": "(stereo not drawn)", "values": [
      {"measurement": "pIC50", "setting": "MAO-A [1]", "result": 3.00},
      {"measurement": "pIC50", "setting": "MAO-B [2]", "result": "< 3.00"},
      {"measurement": "MAO-A Inhibition Ex vivo ED50", "setting": "MAO-A [3]", "result": ">120", "unit": "µmol/kg"},
      {"measurement": "MAO-B Inhibition Ex vivo ED50", "setting": "MAO-B [4]", "result": ">120", "unit": "µmol/kg"},
      {"measurement": "pIC50", "setting": "[5]", "result": 5.72},
      {"measurement": "AChE Inhibition Ex vivo ED50 (AC)", "setting": "whole brain AChE", "result": 13.2, "unit": "µmol/kg"}
    ]}
  ]
}
